# Source: PMC6925144, “A prospective compound screening contest identified broader inhibitors for Sirtuin 1” (Scientific Reports, 2019)
# Amino acid sequences for entries named in this document (tags omitted). Residues count along the entry.
# UniProt Q96EB6, 2-747 limits assumed: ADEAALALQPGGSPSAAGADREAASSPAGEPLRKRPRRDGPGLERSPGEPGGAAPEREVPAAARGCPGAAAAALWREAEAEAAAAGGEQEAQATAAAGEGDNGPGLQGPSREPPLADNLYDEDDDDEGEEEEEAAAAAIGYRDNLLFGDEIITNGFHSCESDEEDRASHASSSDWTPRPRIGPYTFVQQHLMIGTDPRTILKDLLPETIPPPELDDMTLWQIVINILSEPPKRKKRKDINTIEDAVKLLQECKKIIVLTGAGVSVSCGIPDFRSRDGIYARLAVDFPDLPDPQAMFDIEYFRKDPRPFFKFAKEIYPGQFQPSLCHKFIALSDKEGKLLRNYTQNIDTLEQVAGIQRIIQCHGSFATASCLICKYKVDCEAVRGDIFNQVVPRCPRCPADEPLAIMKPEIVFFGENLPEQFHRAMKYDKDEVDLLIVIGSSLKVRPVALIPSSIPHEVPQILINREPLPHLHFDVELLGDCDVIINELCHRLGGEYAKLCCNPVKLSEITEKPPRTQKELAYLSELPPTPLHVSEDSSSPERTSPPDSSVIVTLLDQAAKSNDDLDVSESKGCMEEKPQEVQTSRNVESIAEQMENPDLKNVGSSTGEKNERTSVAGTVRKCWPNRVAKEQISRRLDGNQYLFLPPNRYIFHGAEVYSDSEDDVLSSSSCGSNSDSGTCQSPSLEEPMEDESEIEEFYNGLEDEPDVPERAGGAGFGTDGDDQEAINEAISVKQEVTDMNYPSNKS
# Whole data set: some 3,200 compounds, median “TSA(with NAD+) / Primary screening (TSA) / delta Tm (K)” near -0.04, cut for the highest 2% near 0.37. The list shows a part of the results.
# Target: NAD-dependent deacetylase Sirtuin 1 (human, UniProt Q96EB6)
# Assay: primary screen, delta tm
# Set-up: single well (n = 1, as 'the same TSA')
# Settings: 10 µM
row,SMILES,TSA(with NAD+) / Primary screening (TSA) / delta Tm (K)
1,O=C1CN(c2ncc(Br)cn2)C2CCCCC2N1 (stereo not drawn),0.13
2,CC(=O)N(c1ccc(C)c(C)c1)c1nc(/C=C(/CC(=O)O)c2nc3ccccc3s2)cs1,0.06
3,NC(=O)Cc1ccc(NC(=O)c2cc(Br)ccc2Cl)cc1,0.06
4,CCCc1nnn[nH]1,-0.02
5,CC1CCC(C(N)=O)CN1Cc1nc2c(F)cccc2[nH]1 (stereo not drawn),-0.01
6,CC([NH3+])C(C)[NH3+] (stereo not drawn),-0.06
7,O=C1c2cccc3cccc(c23)N1Cc1cc(-c2cccs2)on1,-0.01
8,COc1cc(/C=C(/C#N)C(=O)NCCc2cnn(-c3ccccc3)c2)ccc1O,-0.01
9,CN(c1ccc2ccccc2n1)S(=O)(=O)c1cc(C(N)=O)n(C)c1,0.06
10,O=C(O)c1ccc2[nH]c(C(F)(F)F)nc2c1,-0.14
11,C=CCN(C(=O)CCCc1nc(C(C)(C)C)no1)c1nc2c(s1)CCCC2,-0.22
12,CC(SCC(O)CO)c1nc2ccccc2c(=O)[nH]1 (stereo not drawn),-0.06
13,CC1CC1c1ccc(/C=C/C(=O)Nc2cc(C(N)=O)ccc2N2CCCC2)o1 (stereo not drawn),-0.12
14,Cc1nc(N2CCN(Cc3nc(-c4ccccc4)no3)CC2)c2c3c(sc2n1)CC(C)CC3 (stereo not drawn),0.09
15,CCc1ncnc(N2CCCC(c3cc(C(N)=O)[nH]n3)C2)c1F (stereo not drawn),-0.16
16,CN(C)C(CNC(=O)c1ccc2c(c1)OCCCO2)c1ccco1 (stereo not drawn),0.01
17,COCCCNCc1ccccc1,-0.09
18,O=C(NCC(O)c1ccccc1)c1ccc2c(=O)[nH]c(S)nc2c1 (stereo not drawn),-0.13
19,CCC(NC(=O)C1=COCCC1)C1CN(Cc2ccccc2)CCO1 (stereo not drawn),-0.23
20,COc1cccc(CN(C(=O)COC(=O)c2ccc(NC(C)=O)cc2)C23CC4CC(CC(C4)C2)C3)c1,-0.13
21,O=C(COC(=O)C1(c2ccc(Cl)cc2)CCCC1)Nc1cc(S(=O)(=O)N2CCOCC2)ccc1N1CCCC1,-0.16
22,CCC(O)CN(C)Cc1ccc2ccccc2c1 (stereo not drawn),-0.03
23,Cc1ccc2c(n1)nn1c(O)cc(C)nc21,-0.18
24,O=C(Cc1c[nH]c2ccccc12)N1CCc2[nH]c3ccccc3c2C1,0.37

row,SMILES,TSA(with NAD+) / Primary screening (TSA) / delta Tm (K)
1,CCN(C(=O)CSc1nnc(-c2sc3ccccc3c2Cl)o1)C1CCS(=O)(=O)C1 (stereo not drawn),0.07
2,Cc1ccc2[nH]c3c(c2c1)CNCC3,-0.06
3,O=C(Cn1cnc2sccc2c1=O)Nc1ccccc1Oc1ccccc1,-0.09
4,Cc1csc2c(N3CCN4CCC3CC4)ncnc12,-0.11
5,O=C1c2ccccc2C(=O)N1Cc1cc(=O)n2ccccc2n1,-0.03
6,Cc1cc(N2CCN(CC(=O)Nc3sc4c(c3C(N)=O)CCCC4)CC2)nc(C(C)C)n1,-0.09
7,O=c1[nH]cnc2c1cnn2-c1ccncc1,-0.23
8,CCN(CC(=O)NCc1ccc(F)cc1)Cc1ccc(C(=O)Nc2ccccc2)cc1,-0.12
9,Cc1ccc([N+](=O)[O-])c(Oc2nc(CN3CCOCC3)nc3scc(-c4cccs4)c23)c1,-0.21
10,Cc1c(C(=O)O)cnc2nc3ccccc3n12,-0.21
11,CN(C(=O)CCN/C(O)=C1/N=CC=CC1=O)c1ccc2ccccc2c1,0.09
12,Cc1cccc(NC(=O)CN2CCN(CC3CCCCC3)CC2)c1C,0.09
13,NS(=O)(=O)c1ccc(C(=O)Nc2ccc3c(c2)-c2ccccc2C3)cc1,0.68
14,COc1ccc(C(=O)OC(C)C(N)=O)cc1F (stereo not drawn),-0.02
15,CNS(=O)(=O)c1ccc(CCC(=O)Nc2ccccc2Cc2ccccc2)cc1,0.07
16,CC(=O)N1N=C(c2ccc(O)cc2)CC1c1ccccc1 (stereo not drawn),0.36
17,CC(C)(CNc1ncnc2ccsc12)C(N)=O,-0.08
18,Cc1nc2ccccc2c2c(NC(=O)c3cnccn3)c3ccccc3n12,-0.13
19,COc1ccc(C(N)=O)cc1NC(=O)c1nn(-c2ccc(C)c(F)c2)c2c1CCCC2,0.13
20,COc1ccc2cc(CNc3ncnc4[nH]ncc34)ccc2c1,-0.01
21,COc1cccc(C(=O)C2=C(O)C(=O)N(CCCN3CCOCC3)C2c2cccc([N+](=O)[O-])c2)c1 (stereo not drawn),0.05
22,O=S1(=O)CC(O)C(N2CCN(c3ncnc4c3oc3ccccc34)CC2)C1 (stereo not drawn),-0.01
23,CCOc1ccc(NC(=O)COc2ccc(C(=O)NC34CC5CC(CC(C5)C3)C4)cc2OC)cc1,-0.06
24,Cc1cnc(N2CCC(Oc3ccnc(C(N)=O)c3)CC2)s1,-0.16

row,SMILES,TSA(with NAD+) / Primary screening (TSA) / delta Tm (K)
1,Cc1ccc(-c2csc(NC(=O)c3ccnc4c(C(N)=O)cnn34)n2)c(C)c1,-0.01
2,Cc1ccccc1CC(=O)Nc1ccc(N2CCN(Cc3ccccc3)CC2)cc1,0.09
3,COc1cccc2cc(C(=O)C3=C(O)C(=O)N(CCN4CCOCC4)C3c3ccc(C)cc3)oc12 (stereo not drawn),0.07
4,O=C(Nc1cccc2ccccc12)N1CC=C(c2ccccc2)CC1,-0.09
5,CNC(=O)c1c(-c2ccccc2)n(C)c2ccccc12,-0.05
6,CCOc1ccc(C2C(C(=O)c3ccco3)=C(O)C(=O)N2CCCN2CCOCC2)cc1OC (stereo not drawn),0.12
7,CC1CCCCC1NC(=O)CN1C(=O)NC2(CCc3ccccc3C2)C1=O (stereo not drawn),-0.09
8,NCCc1nc2cc(C(=O)O)ccc2[nH]1,-0.13
9,Cc1nc(-c2ccc(NC(=O)[C@H](C)NC(=O)OCc3ccccc3)cc2)cs1,-0.11
10,CN(CC(=O)Nc1ccc(Cl)c(C(F)(F)F)c1)C(=O)COC(=O)Cc1coc2cc(O)ccc12,0.32
11,CCCCC(NC1=NS(=O)(=O)c2ccccc21)C(=O)NCc1ccc(-c2ccc(O)cc2)cc1 (stereo not drawn),0.12
12,COc1cc(/C=N/NC(=O)c2cc3c(s2)CCCC3)ccc1OS(=O)(=O)c1cc(C)ccc1C,0.09
13,O=C(O)c1ccc2c(c1)C(=O)c1ccccc1-2,-0.05
14,Nc1nc(Cl)cc(NC2CCCC2)n1,-0.02
15,Cc1ccc(C23CC4CC(CC(C(=O)OCC(=O)N5c6ccccc6NC(=O)C5(C)C)(C4)C2)C3)cc1,-0.23
16,O=C(O)CC(S)C(=O)O (stereo not drawn),-0.04
17,COc1ccc(C=C2C(=O)NC(=S)NC2=O)c(OC)c1,-0.09
18,O=C(NNC(=O)C12CC3CC(CC(C3)C1)C2)c1ccc(NS(=O)(=O)c2ccc3c(c2)OCCO3)cc1,-0.08
19,Cc1cnc2c(S(=O)(=O)N3CCN(CC(=O)Nc4ccccc4OC(F)F)CC3)cccc2c1,0.13
20,Cc1nc2c(C(N)=O)ncn2c(C)c1CCC(=O)Nc1ccc(F)c(C(N)=O)c1,0.09
21,COc1ccc(C(N)=O)cc1NC(=O)c1nc2nc(C)cc(C)n2n1,-0.11
22,O=C(CCc1cccs1)Nc1ccc(-c2nnc3n2CCCCC3)cc1,-0.11
23,O=C1/C(=C/c2cnn(-c3ccccc3)c2)Oc2cc(O)ccc21,0.99
24,CCOc1ccc(C2C(C(=O)c3cccs3)=C(O)C(=O)N2CCCN2CCOCC2)cc1OC (stereo not drawn),0.08

row,SMILES,TSA(with NAD+) / Primary screening (TSA) / delta Tm (K)
1,COc1cccc(NC(=S)Nc2cccc(S(=O)(=O)N(C)c3ccccc3)c2)c1,0.11
2,NC(=O)c1ccc(NC(=O)COC(=O)CCC(=O)c2ccc(Cl)cc2)cc1,-0.18
3,COc1cc(CN(C)C(=O)Cc2n[nH]c(=O)c3ccccc23)ccc1OCc1ccccc1,-0.14
4,Cc1nc(C(C)NC(=O)c2ccc[nH]2)sc1C(=O)O (stereo not drawn),-0.11
5,Cc1ccc(-c2noc(C(C)N3CCN(c4ncnc5cc(Cl)ccc45)CC3)n2)cc1 (stereo not drawn),0.02
6,Cc1ccc(Oc2ccc(NCc3nnc(C4CCC4)o3)cc2)nn1,0.06
7,N#Cc1cnn(C(=O)C2=NOC(c3ccccc3)C2)c1N (stereo not drawn),-0.04
8,CCCCOCCN,-0.05
9,Cc1nc(C)c(C(C)NC(=O)CSC(=S)N2CCC(C)CC2)s1 (stereo not drawn),0.02
10,O=C([O-])CP(=O)([O-])C(=O)[O-],-0.16
11,O=c1[nH]cccc1O,-0.22
12,Cc1sc(NC(=O)N2CCN(Cc3nc(-c4ccc(Cl)cc4)no3)CC2)c(C#N)c1C,-0.01
13,CCOc1ccccc1/C=C1/Oc2cc(O)ccc2C1=O,-0.01
14,O=C1CC2(CCCCC2)CC(=O)C1=CNCC1COc2ccccc2O1 (stereo not drawn),-0.38
15,O=C(Nc1ccccc1Oc1ccccc1)C1COc2ccccc2O1 (stereo not drawn),-0.21
16,Cc1ccc(N(C)S(=O)(=O)c2cccc(C(=O)Nc3ccccc3C)c2)cc1,0.06
17,CCCOc1cccc(C2C(C(=O)c3cccs3)=C(O)C(=O)N2CCCN2CCOCC2)c1 (stereo not drawn),0.01
18,Cc1ccc(-c2nnc(CCC(=O)Nc3cccc(C)c3C)o2)cc1,-0.03
19,CC(C)CC(NC(N)=O)C(=O)NC(Cc1ccccc1)c1nc2ccccc2[nH]1 (stereo not drawn),-0.12
20,COc1ccc(C=C2C(=O)NC(=S)NC2=O)c2ccccc12,-0.01
21,O=c1[nH]nc(-c2ccc(F)cc2)o1,-0.04

# Single entries from the results shown:
# TSA(with NAD+) / Primary screening (TSA) / delta Tm (K) with `COc1ccc(C=C2C(=O)NC(=S)NC2=O)c2ccccc12` reads -0.01
# TSA(with NAD+) / Primary screening (TSA) / delta Tm (K) with `CCCOc1cccc(C2C(C(=O)c3cccs3)=C(O)C(=O)N2CCCN2CCOCC2)c1` (stereo not drawn) reads 0.01
# TSA(with NAD+) / Primary screening (TSA) / delta Tm (K) with `Cc1nc(C(C)NC(=O)c2ccc[nH]2)sc1C(=O)O` (stereo not drawn) reads -0.11
